Laboratory results published in patent US20230414575A1, “MK2 ACTIVATING COMPOUNDS FOR USE IN TREATING VASCULAR LEAK AND ENDOTHELIAL BARRIER DISORDERS” (Akttyva Therapeutics, Inc., priority 2020, published 2023).
At least one compound was matched to its structure with a doubt left.

Protein sequences, listed by entry. Tags and fused reporters are not part of them. Residues count along the entry.
UniProt Q80ZF4, 1-386: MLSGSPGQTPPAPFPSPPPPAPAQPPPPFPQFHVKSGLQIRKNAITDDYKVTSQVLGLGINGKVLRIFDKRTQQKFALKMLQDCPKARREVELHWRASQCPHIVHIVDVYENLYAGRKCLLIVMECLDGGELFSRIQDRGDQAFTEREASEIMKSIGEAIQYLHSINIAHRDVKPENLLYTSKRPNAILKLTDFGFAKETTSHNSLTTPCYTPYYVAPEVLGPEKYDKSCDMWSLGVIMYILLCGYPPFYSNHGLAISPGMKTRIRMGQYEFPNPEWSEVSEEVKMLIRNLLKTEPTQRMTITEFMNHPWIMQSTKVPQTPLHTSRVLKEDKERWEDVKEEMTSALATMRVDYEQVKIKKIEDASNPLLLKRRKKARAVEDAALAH

Biological target: T1, MK2 (Rattus norvegicus, UniProt Q80ZF4)
T1 construct: endogenous in cells; host or cells: rat microvascular endothelial cells (RMVEC)
Assay: ELISA MK2 cell-based activity assay (phospho-HSP-27), RMVEC cells
Settings: compound 20 μM, 30 minutes, 37° C.
Procedure: The MK2 activator candidates, identified using the artificial intelligence (AI)-assisted docking approach, were tested in activity assays for lead selection against the MK2 target. MK2 activation was assessed using (a) a cell-based assay using rat microvascular endothelial cells (RMVEC) and (b) human cancer skin fibroblast cells (Malme-3M). In both assays, an Enzyme-linked ImmunoSorbent Assay (ELISA) technique was used to measure (HSP-27) phosphorylation (DYC2314-2, R&D Systems). Both cell lines were grown to confluency in a 96-well tissue culture plate and treated at 37° C. for 30 minutes with the test compounds at concentrations of 20 μM. The cells were subsequently lysed with a lysis solution containing 0.5% Triton X-100 and anti-proteolysis agents. The resulting lysates were then loaded onto ELISA plates coated with anti-rat phospho-HSP27. After incubation and washing, the plates were treated with an horseradish peroxidase (HRP)-conjugated anti-phospho-HSP27 secondary antibody and then measured for chemiluminescence. Higher activity compounds, acting on MK2, induced higher levels of HSP-27 phosphorylation, as measured by the ELISA.

CN1CCN(C2CCN(C(=O)Nc3cc(Oc4ccc(NC(=O)C5(C(=O)Nc6ccc(F)cc6)CC5)c(F)c4)ccn3)CC2)CC1 [Compound 53, Golvatinib]
Ratio Compound/control: 0.3 | Average Response HSP27 (phospho-HSP27 ELISA): 1.2 pg/mL
